Results deposited as PubChem BioAssay AID504784 (Drosophila RNAi Screening Center, 2011)
The deposit covers about 17,000 reagents; below is a random part of those that have a named target and a result. 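Each column is one replicate's B-score; the combined score over replicates was not deposited, so single values may mislead.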 Not all columns of the deposit are shown.

- Aim: 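Search for regulators of lipid droplet storage in oleate-fed fly cells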 (primary screen)
- System: Drosophila Kc167 embryonic cells
- Reagents: long dsRNA against Drosophila genes, about 250 ng dsRNA per well
- Timing: 4 days
- Treatment: cells fed 400 µM oleic acid bound to BSA
- Measurement: 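Microscope images give a droplet-to-nucleus area ratio, taken as log and converted to a screen-wide B-score; higher values mean greater lipid storage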
- Scale: droplet/nuclear area B-score: higher = more stored lipid (overstorage)

gene	dsRNA	droplet/nuclear area B-score, replicate 1	droplet/nuclear area B-score, replicate 2
shop	DRSC20030	-0.297	-1.4
CG6171	DRSC15982	0.434	0.407
hmw	DRSC16277	2.01	0.0811
salm	DRSC03606	-1.18	-0.316
CG6659	DRSC20003	-1.74	1.16
Tab2	DRSC07481	-1.13	-0.089
Ubi-p63E	DRSC22016	-0.281	-1.88
CG14232	DRSC19588	3.16	-1.19
CG10555	DRSC17748	0.673	1.6
CG10555	DRSC23202	0.628	0.567
cuff	DRSC06315	0.661	1.62
CG14115	DRSC10118	3.24	5.37
Theg	DRSC16023	-0.179	-2.43
Cht4	DRSC04603	-1.48	-0.328

Just “droplet/nuclear area B-score, replicate 1” (2 entries from above):
salm [DRSC03606]: -1.18
CG6659 [DRSC20003]: -1.74

More records:
gene	dsRNA	droplet/nuclear area B-score, replicate 1	droplet/nuclear area B-score, replicate 2
grass	DRSC15911	-0.458	1.56
CG5357 (retired record)	DRSC04497	-0.121	0.0811
CG13071	DRSC09954	-0.429	-0.87
CG17294	DRSC02596	-0.397	0.173
Sp212	DRSC22930	-0.863	-1.49
Tgi	DRSC09793	-0.455	-0.341
Tgi	DRSC09794	-0.261	-0.467
CG33340	DRSC14615	-0.558	0.406
Pgm2b	DRSC05978	-0.613	-1.29
CG32373	DRSC08895	0.424	0.0819
CG13893	DRSC08363	1.08	3.56
Tak1	DRSC20390	-0.383	-1.19
Tak1	DRSC20561	0.558	0.133
Tak1	DRSC20562	1.39	0.127
nwk	DRSC10442	1.23	-0.0243
CG6508	DRSC02963	0.93	-2.02
ovo	DRSC18050	0.822	8.03
ovo	DRSC18812		0.126
unc-4	DRSC20381	-1.32	0.928
unc-4	DRSC22074	-0.0841	0.428
